For some assays here: The comparison behind a weaker result is the experiment's own reference, which may not be listed here. For some assays here: Construct, isoform or probe ends are uncertain for at least one entry. For some assays here: At least one verdict rests on a figure or table, not on a statement of the authors.

The chains behind the UniProt entries cited, without tags or fusion partners. Residues count along the entry.
UniProt P51858, 35-237, stated change not applied: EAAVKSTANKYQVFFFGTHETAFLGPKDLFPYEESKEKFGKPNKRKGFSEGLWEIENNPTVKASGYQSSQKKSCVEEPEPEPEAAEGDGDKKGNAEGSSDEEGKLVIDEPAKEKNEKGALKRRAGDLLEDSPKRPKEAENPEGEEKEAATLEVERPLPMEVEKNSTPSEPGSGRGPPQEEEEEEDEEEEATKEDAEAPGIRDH

One data set has as its target GST-HDGF (Homo sapiens) (UniProt P51858). Nature of the data set: EMSA. The settings on record: 10 mM Tris pH 7.5, 50 mM KCl, 1 mM DTT, 5% glycerol, 0.05% NP-40, 0.1 ug sheared salmon sperm DNA; 1 ug protein, 0.25 pmol probe, 30 min on ice; 5% PAGE in 0.1x TBE; recombinant protein; protein details: N-terminal GST (pGEX-4T2); label: 5' biotin; letters put together from the description.

For data set [1], the target named is GST-HDGF Δ35-237 (Homo sapiens) (UniProt P51858). Nature of the data set: EMSA. The settings on record: 10 mM Tris pH 7.5, 50 mM KCl, 1 mM DTT, 5% glycerol, 0.05% NP-40, 0.1 ug sheared salmon sperm DNA; 1 ug protein, 0.25 pmol probe, 30 min on ice; 5% PAGE in 0.1x TBE; recombinant protein; residues 35-237; protein details: N-terminal GST; label: 5' biotin (sense strand).

As for “CAGGCTGGTCTTGAACTCCTGACCTCAGATGATCCATGTGCCTCGGCCTC (double strand) [50 bp probe (3' deletion)]”, the binding result in the data set with GST-HDGF (Homo sapiens) is listed as “binds”.
On to “CAGGCTGGTCTTGAACTCCTGACCTCAGATGATCCATGTGCCTCGGCCTCCCAAGGTGGGGATTACAGGCGTGAGCCACC (double strand) [SMYD1 promoter 80 bp probe]”, for which the binding result in data set [1] is recorded as “binds more weakly”.

Values taken from paper PMC2176068.
